Literature values, collected in US11434242B2, “Dopamine-b-hydroxylase inhibitors” (BIAL-PORTELA & Cª, S.A., priority 2017, dated 2022).
At least one structure is not confirmed: it was looked up by name or label, or the drawing left a doubt.

Test system: DβH
Conditions: literature; cited from earlier work

CCCCc1ccc(C(=O)O)nc1 [fusaric acid]
potency: low potency | selectivity for DβH: poor selectivity for DβH
